# The other results are listed elsewhere or left out.
# B1: pullulanase (Streptococcus pyogenes), Q8KLP1 (protein)
# chain: MKKKVNQGSKRYQYLLKKWGIGFVIAATGTVMLGCIPSILTHQVAAKTIVGLARDEAQQGDGNAKSGDGFQSSSKEAKPVLDSSSANPASIAEHHLRMHFKTLPAGESLGSLGLWVWGDVDQPSKDWPNGAITMTKAKKDDYGYYLDVPLAAKHRQQVSYLINNKAGENLSKDQHIPLLTPKMNEVWIDENYHAHAYRPLKKGYLRINYHNQSGHYDNLAVWTFKDVKTPTTDWPNGLDLSHKGPYGAYVDVPLKEGANEIGFLILDKSKTGDAIKVQPKDYLFKELDNHTQVFVKDTDPKVYNNPYYIDQVSLKGAEQTTPNEIKAIFTTLDGLDEDAVKQNIKITDKAGKTVAIDELTLDKDKSVMTLKGDFKAQGAVYTVTFGEVSQVARQSWQLKDKLYAYDGELGATLAKDGSVDLALWSPSADSVKVVVYDKQDQTKVVGQADLTKSDKGVWRAHLTSDSVKGISDYTGYYYLYEITRGQEKVMVLDPYAKSLAAWNDATATDDIKTAKAAFIDPSKLGPTGLDFAKINNFKKREDAIIYEAHVRDFTSDKALEGKLTHPFGTFSAFVEQLDYLKDLGVTHVQLLPVLSYFYANELDKTRSTAYTSSDNNYNWGYDPQHYFALSGMYSANPNDPALRIAELKNLVNEIHKRGMGVIFDVVYNHTARTYLFEDLEPNYYHFMNADGTARESFGGGRLGTTHAMSRRILVDSITYLTREFKVDGFRFDMMGDHDAAAIEQAFKAAKAINPNTIMIGEGWRTYQGDEGKKEIAADQDWMKATNTVGVFSDDIRNTLKSGFPNEGTAAFITGGAKNLEGLFKTIKAQPSNFEADAPGDVVQYIAAHDNLTLHDVIAKSINKDPKVAEEEIHKRIRLGNTMILTAQGTAFIHSGQEYGRTKQLLNPDYKTKVSDDKVPNKATLIDAVAQYPYFIHDSYDSSDAVNHFDWAKATDSIAHPISNQTKAYTQGLIALRRSTDAFTKATKAEVDRDVTLITQAGQDGIQQEDLIMGYQTVASNGDRYAVFVNADNKTRKVVLPQAYRYLLGAQVLADAEQVGVTAIAKPKGVQFTKEGLTIDGLTALVLKVSSKTANPSQQKSQTDNHQTKTPDGSKDLDKSLMTRPKRAKTNQKLPKTGEAPSKGLLAAGVALLLLAISLLMKRQKD
# Key:
# Test in all cases: glycan array binding signal (z-score within array); higher = stronger binding
# Conditions in all cases: glycan notation: IUPAC condensed, linker removed
# [1] = target: Man(a1-3)[Man(a1-6)]Man(a1-6)[Man(a1-3)]Man(b1-4)GlcNAc(b1-4)GlcNAc
# In short: (§1)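 Glycan array binding is given as a within-array Z-score, which can be read as non-binding when negative. The arrays, 3228 of them, came from the Consortium for Functional Glycomics database and were retained only where the protein sequence was available. Z-scores were averaged across arrays of the same protein sequence at different concentrations or buffers and across linkers.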
# [2] = target: Man(a1-3)[Man(a1-6)]Man(b1-4)GlcNAc(b1-4)GlcNAc
# In short: as §1
# Man(a1-6)Man = target: Man(a1-6)Man
# In short: as §1
# Man(b1-4)GlcNAc = target: Man(b1-4)GlcNAc
# In short: as §1
# Neu5Ac(a2-3)Gal = target: Neu5Ac(a2-3)Gal
# In short: as §1
# [3] = target: Neu5Ac(a2-3)Gal(b1-3)GalNAc
# In short: as §1
# [4] = target: Neu5Ac(a2-3)Gal(b1-3)GalNAc(b1-3)Gal(a1-4)Gal(b1-4)Glc
# In short: as §1
# [5] = target: Neu5Ac(a2-3)Gal(b1-3)GalNAc(b1-4)[Neu5Ac(a2-3)]Gal(b1-4)Glc
# In short: as §1
# [6] = target: Neu5Ac(a2-3)Gal(b1-3)GalNAc(b1-4)[Neu5Ac(a2-8)Neu5Ac(a2-3)]Gal(b1-4)Glc
# In short: as §1
# [7] = target: Neu5Ac(a2-3)Gal(b1-3)GalNAc6S
# In short: as §1
# [8] = target: Neu5Ac(a2-3)Gal(b1-3)GlcNAc
# In short: as §1
# [9] = target: Neu5Ac(a2-3)Gal(b1-3)GlcNAc(b1-2)Man(a1-3)[Neu5Ac(a2-3)Gal(b1-3)GlcNAc(b1-2)Man(a1-6)]Man(b1-4)GlcNAc(b1-4)GlcNAc
# In short: as §1
# [10] = target: Neu5Ac(a2-3)Gal(b1-3)GlcNAc(b1-3)Gal(b1-3)GlcNAc
# In short: as §1
# [11] = target: Neu5Ac(a2-3)Gal(b1-3)GlcNAc(b1-3)Gal(b1-4)GlcNAc
# In short: as §1
# [12] = target: Neu5Ac(a2-3)Gal(b1-3)GlcNAc(b1-3)GalNAc
# In short: as §1
# [13] = target: Neu5Ac(a2-3)Gal(b1-3)GlcNAc6S
# In short: as §1
# [14] = target: Neu5Ac(a2-3)Gal(b1-3)[Fuc(a1-4)]GlcNAc
# In short: as §1
# [15] = target: Neu5Ac(a2-3)Gal(b1-3)[Fuc(a1-4)]GlcNAc(b1-3)Gal(b1-3)[Fuc(a1-4)]GlcNAc
# In short: as §1
# [16] = target: Neu5Ac(a2-3)Gal(b1-3)[Fuc(a1-4)]GlcNAc(b1-3)Gal(b1-4)[Fuc(a1-3)]GlcNAc
# In short: as §1
# [17] = target: Neu5Ac(a2-3)Gal(b1-3)[Neu5Ac(a2-3)Gal(b1-4)]GlcNAc
# In short: as §1
# [18] = target: Neu5Ac(a2-3)Gal(b1-3)[Neu5Ac(a2-6)]GalNAc
# In short: as §1
# Neu5Ac(a2-3)Gal(b1-4)Glc = target: Neu5Ac(a2-3)Gal(b1-4)Glc
# In short: as §1
# [19] = target: Neu5Ac(a2-3)Gal(b1-4)GlcNAc
# In short: as §1
binder,measurement,setting,value
B1,glycan array binding signal (z-score),[1],-0.36
same,glycan array binding signal (z-score),[2],0.448
same,glycan array binding signal (z-score),Man(a1-6)Man,0.668
same,glycan array binding signal (z-score),Man(b1-4)GlcNAc,0.398
same,glycan array binding signal (z-score),Neu5Ac(a2-3)Gal,-0.08
same,glycan array binding signal (z-score),[3],-0.607
same,glycan array binding signal (z-score),[4],0.881
same,glycan array binding signal (z-score),[5],-0.001
same,glycan array binding signal (z-score),[6],-0.001
same,glycan array binding signal (z-score),[7],-1.23
same,glycan array binding signal (z-score),[8],0.591
same,glycan array binding signal (z-score),[9],-1.61
same,glycan array binding signal (z-score),[10],-0.475
same,glycan array binding signal (z-score),[11],0.535
same,glycan array binding signal (z-score),[12],-0.232
same,glycan array binding signal (z-score),[13],0.267
same,glycan array binding signal (z-score),[14],-0.868
same,glycan array binding signal (z-score),[15],1.53
same,glycan array binding signal (z-score),[16],-0.409
same,glycan array binding signal (z-score),[17],-0.553
same,glycan array binding signal (z-score),[18],-0.262
same,glycan array binding signal (z-score),Neu5Ac(a2-3)Gal(b1-4)Glc,-1.33
same,glycan array binding signal (z-score),[19],-0.571

# Fetched one by one from the entries so far (2):
binder,measurement,setting,value
B1,glycan array binding signal (z-score),Neu5Ac(a2-3)Gal(b1-4)Glc,-1.33
same,glycan array binding signal (z-score),[8],0.591
